Results reported in PMC10740831 (Biomedicines, 2023).
HELM strings list residues between dots; [ac] is acetyl, [am] amide, other brackets name non-standard units.

Legend:
[1] = general procedure: Fmoc solid-phase peptide synthesis; Rink Amide MBHA; HBTU/DIPEA; conditions: whole synthesis; for crude HPLC purity: chromatographic purity
[2] = general procedure: Fmoc solid-phase peptide synthesis; 2-CTC; HBTU/DIPEA; conditions: whole synthesis; for crude HPLC purity: chromatographic purity

Substance	crude yield [1] [%]	crude HPLC purity [1] [%]	crude yield [2] [%]	crude HPLC purity [2] [%]
B-Phe-Glu-Leu-Leu-NH2	89	100	–	–
PEPTIDE1{[PyrA].F.E.L.L.[am]}$$$$V2.0	89	85	–	–
PEPTIDE1{[PyrA].F.E.L.L}$$$$V2.0	–	–	49	88
PEPTIDE1{[PyrB].F.E.L.L}$$$$V2.0	–	–	27	100
